The source of these data is patent publication US20240025992A1.

Results are given in words; binding and its absence hold for the method and conditions named. Some binding calls cover weakened binding; strength is not graded here.

For the assay, the target named is DL3W36, human DLL3 EGF6 domain+C-term ECD sequence, HSA Fusion and C-term 6 His tag (human). The assay is described as follows: MSD plate binding assay on coated DLL3 domain-HSA fusions.

B1: DL3B572 (Fc fusion, not shown: a dimerising Fc or GST)
scFv: EVQLVQSGAEVKKPGASVKVSCKASGYTFTTYYIHWVRQAPGQGLEWMGIIDPSGGRTSYAQKFLGRVTMTRDTSTSTVYMELRSLRSEDTAVYYCARGGDGTWYYGMDVWGQGTTVTVSSGGSEGKSSGSGSESKSTGGSDIVMTQSPSFLSASVGDRVTITCRASQGISNYLAWYQQKPGKAPKLLIYAASTLQSGVPSRFSGSGSGTEFTLTISSLQPEDFATYYCQQLNSYPLTFGGGTKVEIK
For the molecule B1, the binding entry was “binds”.
